According to PubChem BioAssay AID2073 (Sanford-Burnham Center for Chemical Genomics, 2009):
Among all 290,000 compounds or so, about 570 (0.2%) were called active. The shares of active, inactive and inconclusive entries below differ from those in the screen. Cut-off read from the data, not from the text of the source: active = inhibition mostly above about 51% (no sharp cut-off); inconclusive = no clear call, values can overlap the other calls; inactive = mostly below about 53%.

Sequences of proteins named here, by UniProt entry; tags and fusion partners are left off.
UniProt Q00975, whole entry, looked up: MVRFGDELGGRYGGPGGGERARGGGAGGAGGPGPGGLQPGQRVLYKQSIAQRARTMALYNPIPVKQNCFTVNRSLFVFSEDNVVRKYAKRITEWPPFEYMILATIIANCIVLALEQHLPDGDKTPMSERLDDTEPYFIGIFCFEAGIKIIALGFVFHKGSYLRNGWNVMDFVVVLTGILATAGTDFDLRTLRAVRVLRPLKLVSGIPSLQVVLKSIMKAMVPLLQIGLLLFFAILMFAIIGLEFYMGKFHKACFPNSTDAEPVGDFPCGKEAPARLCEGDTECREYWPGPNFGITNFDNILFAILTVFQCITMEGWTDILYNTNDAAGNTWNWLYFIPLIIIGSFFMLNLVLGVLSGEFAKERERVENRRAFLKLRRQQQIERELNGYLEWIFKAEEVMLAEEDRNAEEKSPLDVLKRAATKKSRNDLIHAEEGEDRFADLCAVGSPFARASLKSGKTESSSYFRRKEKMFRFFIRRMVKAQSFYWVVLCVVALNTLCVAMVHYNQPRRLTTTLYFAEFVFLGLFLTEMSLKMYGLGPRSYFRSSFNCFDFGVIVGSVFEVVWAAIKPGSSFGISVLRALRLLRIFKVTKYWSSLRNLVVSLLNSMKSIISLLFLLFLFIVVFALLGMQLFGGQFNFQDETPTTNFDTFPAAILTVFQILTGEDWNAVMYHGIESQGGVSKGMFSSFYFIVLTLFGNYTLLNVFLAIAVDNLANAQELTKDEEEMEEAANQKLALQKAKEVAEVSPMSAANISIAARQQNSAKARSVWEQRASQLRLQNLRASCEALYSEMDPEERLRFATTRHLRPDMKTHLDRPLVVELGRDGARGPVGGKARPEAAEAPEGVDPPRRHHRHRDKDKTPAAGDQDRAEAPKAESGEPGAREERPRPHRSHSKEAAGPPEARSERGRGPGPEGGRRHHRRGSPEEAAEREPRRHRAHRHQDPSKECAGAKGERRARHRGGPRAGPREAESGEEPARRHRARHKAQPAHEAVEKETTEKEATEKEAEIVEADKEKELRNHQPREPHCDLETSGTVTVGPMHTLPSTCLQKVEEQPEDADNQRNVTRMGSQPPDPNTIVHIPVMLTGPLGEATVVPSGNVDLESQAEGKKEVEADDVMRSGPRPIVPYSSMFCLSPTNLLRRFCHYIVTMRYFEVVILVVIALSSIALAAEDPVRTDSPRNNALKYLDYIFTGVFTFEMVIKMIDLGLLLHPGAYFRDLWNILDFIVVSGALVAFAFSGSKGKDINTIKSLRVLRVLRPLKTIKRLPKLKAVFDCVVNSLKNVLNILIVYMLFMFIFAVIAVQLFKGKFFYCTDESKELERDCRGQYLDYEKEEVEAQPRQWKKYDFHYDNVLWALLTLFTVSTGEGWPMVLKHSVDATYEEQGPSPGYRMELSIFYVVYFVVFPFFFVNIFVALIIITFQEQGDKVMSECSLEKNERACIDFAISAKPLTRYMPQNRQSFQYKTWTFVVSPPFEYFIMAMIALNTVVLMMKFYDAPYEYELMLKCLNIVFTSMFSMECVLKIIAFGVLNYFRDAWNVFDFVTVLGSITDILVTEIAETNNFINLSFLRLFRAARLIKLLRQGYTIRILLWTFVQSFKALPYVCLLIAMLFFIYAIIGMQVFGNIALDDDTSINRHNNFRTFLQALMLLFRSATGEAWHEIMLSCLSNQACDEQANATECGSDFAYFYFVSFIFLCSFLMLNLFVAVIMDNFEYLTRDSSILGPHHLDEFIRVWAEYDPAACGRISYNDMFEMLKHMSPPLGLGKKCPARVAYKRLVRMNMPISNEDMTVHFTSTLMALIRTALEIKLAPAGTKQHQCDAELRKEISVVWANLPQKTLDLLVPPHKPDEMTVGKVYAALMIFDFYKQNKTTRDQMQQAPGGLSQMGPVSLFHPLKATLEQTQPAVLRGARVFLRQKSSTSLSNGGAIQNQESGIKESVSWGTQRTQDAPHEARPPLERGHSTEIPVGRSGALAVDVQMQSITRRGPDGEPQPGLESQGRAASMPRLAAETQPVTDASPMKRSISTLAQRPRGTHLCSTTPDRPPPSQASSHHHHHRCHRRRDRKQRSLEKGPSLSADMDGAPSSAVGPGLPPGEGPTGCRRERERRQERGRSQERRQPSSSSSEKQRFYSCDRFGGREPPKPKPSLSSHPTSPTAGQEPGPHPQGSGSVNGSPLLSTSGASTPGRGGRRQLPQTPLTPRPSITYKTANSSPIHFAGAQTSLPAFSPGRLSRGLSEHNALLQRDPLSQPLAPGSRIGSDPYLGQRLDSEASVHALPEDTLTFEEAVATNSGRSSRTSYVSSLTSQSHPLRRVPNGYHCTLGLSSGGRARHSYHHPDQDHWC

Target: Voltage-dependent N-type calcium channel subunit alpha-1B (Homo sapiens) (UniProt Q00975)
Test: disruptors of CaV2.2 binding to Mint1 – biochemical, HTRF (AID 2073)
Conditions: HTRF protein-protein interaction, Mint1-CaV2.2; at 20 µM; active compounds read high

Structure (SMILES)	inhibition
CCCCCOc1ccc2oc(=O)c3c(c2c1)CCCN3C(=O)CN1CCCC(C(=O)OCC)C1 (stereo not given)	inconclusive: 70.1%
COc1ccccc1N(CC(=O)N(CC(C)C)CC(C)C)S(=O)(=O)c1cccs1	inactive: -4.4%
CN1c2ccsc2C(O)=C(C(=S)Nc2ccc(F)c(Cl)c2)S1(=O)=O	inconclusive: 58.3%
CNc1nc(N)c([N+](=O)[O-])c(NCC2CCCO2)n1 (stereo not given)	inconclusive: 54.8%
c1ccc2c(c1)nc(NCCN1CCOCC1)c1nncn12	inactive: 6.6%
Cc1cccc(N(C(=O)CCC(=O)Nc2cccnc2)C(C(=O)NC2CCCC2)c2ccncc2)c1 (stereo not given)	inconclusive: 56.7%
FC(F)(F)c1cccc(CN2CCSCC2)c1	inconclusive: 68.6%
CN(C(=O)CC1C(=O)NCCN1Cc1ccccc1F)C1CCOCC1 (stereo not given)	inactive: 16.3%
COc1ccc(N=Cc2cc(Cc3ccccc3Cl)cc([N+](=O)[O-])c2O)cc1OC	inconclusive: 79.5%
O=C(CN1C(=O)C2CCCCC2C1=O)N1CCN(c2ncccn2)CC1 (stereo not given)	inactive: 10.4%
CC(C)N1CCc2c(sc(N)c2C#N)C1	inconclusive: 67.9%
O=C(C1=NN(c2ccccc2)C2C(=O)N(c3ccc(Cl)cc3)C(=O)C12)c1ccccc1 (stereo not given)	inconclusive: 55.9%
COc1cc(C2Nc3cccc4cccc(c34)N2)cc(OC)c1O	inconclusive: 68.3%
O=C(CN1CCN(Cc2ccccc2F)C1=O)NCC1CCCO1 (stereo not given)	inconclusive: 74.1%
CNS(=O)(=O)c1cc(-c2nnc(Nc3ccc(CC(N)=O)cc3)c3ccccc23)ccc1C	inconclusive: 63.4%
Cc1ccc(N=C2NC(=O)/C(=C/C=C/c3ccco3)S2)cc1	inactive: 36.2%
Cc1ccc(C(=O)N2CCC(C)CC2)cc1S(=O)(=O)N1CCCCC1	inconclusive: 78.2%
Cc1cc(C(F)F)nn1CC(=O)NC1CCCC1	inconclusive: 50.1%
O=C(COC(=O)c1cccs1)NCc1ccco1	inactive: -0.7%
COc1cccc(C(=O)NC2CC3CCCC(C2)N3CC(=O)Nc2ccccc2)c1 (stereo not given)	active: 55%
Cc1ccccc1CCNC(=O)Cn1ccc2cc(S(=O)(=O)N3CCCC3)ccc21	inconclusive: 82.2%
CSc1ccccc1OCc1cc(C(=O)NCc2csc(C(C)C)n2)no1	inconclusive: 78.2%
CC(C)(C)C(=O)c1cn(CC(=O)NCc2ccc3c(c2)OCO3)c2ccccc12	inconclusive: 63.8%

Structure (SMILES)	inhibition
Cc1ccc(NC(=O)CCCn2nc(C)c3c(C)n(-c4ccccc4)nc3c2=O)cc1C	inconclusive: 71.3%
CC(C)(C)C1CCC(=NNC(=O)C(=O)NCc2ccco2)CC1 (stereo not given)	inconclusive: 61.9%
O=Cc1cccn1-c1cccnc1	inactive: 8.9%
COc1cccc(CN(CC(=O)NCc2ccco2)C(=O)CNS(=O)(=O)c2ccccc2)c1	inconclusive: 60%
Cc1ccc(-c2csc(C3=C(O)CN(NC(=O)c4ccc([N+](=O)[O-])cc4)C3=N)n2)cc1	inactive: 25.8%
O=C(COc1ccc(Br)cc1Cl)c1ccc[nH]1	inactive: 24.7%
N/C(=N/OC(=O)c1ccccc1F)c1nonc1N	inconclusive: 79.8%
CCOc1ccc(CCNS(=O)(=O)c2cc3c(cc2C)NC(=O)CO3)cc1OCC	inconclusive: 53.3%
CCC1Oc2ccc(C)cc2N(CC(=O)N(Cc2ccncc2)Cc2ccco2)C1=O (stereo not given)	inactive: 10.2%
CCN(CC)S(=O)(=O)c1ccc(N2CCOCC2)c(C(=O)O)c1	inconclusive: 52.2%
COc1ccc(C2(C)NC(=O)N(CC(=O)NCc3ccccc3F)C2=O)cc1 (stereo not given)	inconclusive: 68.4%
N=c1oc2ccccc2cc1-c1nc(-c2ccccc2)cs1	inconclusive: 54.8%
CC(=O)c1cccc(-n2c(CCC(=O)O)ccc2-c2cccs2)c1	inconclusive: 79.8%
COc1cc(NC(=O)c2cc3ccccc3cc2O)c(OC)cc1Cl	inconclusive: 63%
O=C1/C(=C/c2ccco2)Cc2ccccc21	inactive: 11.1%
CCCS(=O)(=O)c1nc(S(=O)(=O)c2ccc(C)cc2)c(NCc2ccco2)s1	inconclusive: 74.3%
COc1cc(C(=O)NC(C)c2cnn(-c3ccccc3C)c2C)cc(OC)c1OC (stereo not given)	inconclusive: 69.4%
Cc1cc(C)c2nc(-c3ccccn3)cc(C(=O)Nc3ccc(S(=O)(=O)Nc4onc(C)c4C)cc3)c2c1	active: 51%
COc1ccc(C(=O)NCCc2cnc[nH]2)cc1OC	inconclusive: 78.3%
Cc1ccc(C(=O)c2c[nH]c(C(=O)NCCCN3CCOCC3)c2)cc1	inconclusive: 62%
Cc1cc(N2CCCC2=O)ccc1S(=O)(=O)N1CCOCC1	inconclusive: 62.4%
CC(C)NC(=O)C1(S(=O)(=O)c2ccccc2)CC=CC1	inactive: 4.8%
CCN(c1cccc(C)c1)S(=O)(=O)c1ccc2c(c1)oc(=O)n2C	inconclusive: 78.1%

Structure (SMILES)	inhibition
CCOC(=O)/C=C/C(=O)N1CCc2ccccc21	inconclusive: 56.9%
Cc1cccc(-c2noc(CCC(=O)NCCc3ccccc3)n2)c1	inconclusive: 79.2%
O=Cc1cnc(N2CCOCC2)nc1	inactive: 6.2%
Cc1csc(Sc2ccc([N+](=O)[O-])cc2C(=O)OCC(=O)NC2CCCC(C)C2C)n1 (stereo not given)	inconclusive: 67.4%
O=C(c1cc(-c2ccccn2)nc2ccc(Br)cc12)N1CCc2ccccc2C1	inconclusive: 52.1%
O=C(NCC1CCCO1)c1cn(-c2ccccc2)nc1-c1ccccc1 (stereo not given)	inconclusive: 78.5%
COc1cc(NC(=O)Cn2nnc(-c3ccccc3N)n2)cc(OC)c1	inconclusive: 68.6%
Cc1cc(NC(=O)OC2CCCCC2)ccc1[N+](=O)[O-]	inactive: -7.7%
Cc1ccc2nc(Cl)nc(-c3ccccc3)c2c1	inconclusive: 69.3%
Cc1nc2ccc(NC(=O)c3ccc([N+](=O)[O-])cc3)cc2[nH]1	inconclusive: 60.6%
Cc1ccc2[nH]c(=O)c(CNC(C)C)cc2c1	inactive: 15.1%
Cc1ccc(S(=O)(=O)N(C)C)cc1NC(=O)c1ccncc1	inconclusive: 62.4%
COCc1nnc(NC(=O)CC(C)c2ccccc2)s1 (stereo not given)	inconclusive: 75.3%
COc1ccc(C(=O)N2CCCC(CO)(Cc3ccccc3C)C2)o1 (stereo not given)	inactive: 2.1%
O=C1/C(=C\c2cccs2)SC(=S)N1C1CCS(=O)(=O)C1 (stereo not given)	inconclusive: 62.5%
Cc1ccc(NC(=O)c2c3c(nc4ccccc24)CCC3)cc1S(=O)(=O)N(C)C	inactive: 53.6%
CCOc1ccc(/C=c2\sc3nc(-c4ccco4)nn3c2=O)cc1OCC	inactive: 31.7%
COC(=O)c1ccc(N2CCN(C(C)=O)CC2)c(NC(=O)COc2ccccc2C)c1	inconclusive: 78.5%
Cc1ccc(N2C(=O)C(Cc3ccccc3)NC2=S)cc1 (stereo not given)	inconclusive: 66.9%
O=C(O)C1CCCCC1C(=O)Nc1cccc(Cl)c1Cl (stereo not given)	inconclusive: 53.7%
Cc1cc(=O)oc(C)c1C(=O)NCCCN1CCN(c2ccccc2F)CC1	inconclusive: 69%
CC(C(=O)Nc1ccccc1C(=O)N1CCOCC1)N(c1ccccc1)S(C)(=O)=O (stereo not given)	inconclusive: 56.5%
O=C(CSc1nnc2c3ccccc3c3ccccc3c2n1)Nc1ccccc1	inconclusive: 57.6%

Structure (SMILES)	inhibition
CNC(=S)NNC(=O)c1c(C)nc2cc(C)ccn12	inactive: 0.7%
COC(=O)c1ccc(COc2ccc3c(c2)CCC3)o1	inconclusive: 90.5%
O=C(NC1CCCc2ccccc21)C1CCN(S(=O)(=O)c2cnc[nH]2)CC1 (stereo not given)	inconclusive: 81.4%
CCOC(=O)C1CCN(S(=O)(=O)c2ccc3c(c2)CC(C)N3C(=O)C2CC2)CC1 (stereo not given)	inconclusive: 55%
COc1ccc(N(CC(=O)N/N=C/c2cc(Br)c(C)o2)S(=O)(=O)c2ccc(NC(C)=O)cc2)cc1	inconclusive: 65.9%
Cc1cc(C)nc(NC(=O)c2ccc(COc3ccccc3Cl)cc2)c1	inconclusive: 75.3%
Cc1ccn2c(Nc3ccccc3C)c(-c3ccccn3)nc2c1	inactive: 15%
COC(=O)c1cc(-c2ccc(Cl)cc2)n(-c2ccc(S(N)(=O)=O)cc2)n1	inconclusive: 52.5%
C/C(=N\NC(=O)c1cc(-c2ccc(C)s2)[nH]n1)c1ccncc1	inconclusive: 69%
O=S1(=O)N=C(N(CCO)/N=C/c2ccncc2)c2ccccc21	inconclusive: 62.5%
O=C(Nc1cccc(S(=O)(=O)N2CCCCC2)c1)c1c2c(nc3ccccc13)CCN(Cc1ccccc1)C2	inactive: 40.8%
CCCC(=O)c1cc2cc(Cl)ccc2oc1=O	inactive: -2.8%
O=C1Nc2ccc(S(=O)(=O)NCCCO)c3cccc1c23	inconclusive: 51.2%
CNc1nc(N)c(C(=O)Nc2cc(C)on2)s1	inconclusive: 73.6%
CN(C)S(=O)(=O)c1ccc(Cl)c(NC(=O)COC(=O)c2cc(-c3ccccc3)nc3ccccc23)c1	inconclusive: 57.6%
CC(=O)Nc1nc(C)c(-c2nc3ccc([N+](=O)[O-])cc3[nH]2)s1	inconclusive: 78.9%
COc1ccc(C2CC(=O)C=C(NNS(=O)(=O)c3ccc(C)cc3)C2)cc1 (stereo not given)	inconclusive: 52%
CC1Sc2ccc(S(=O)(=O)N3CCC(C(=O)NCc4ccc(Cl)cc4)CC3)cc2NC1=O (stereo not given)	inconclusive: 79.5%
Cc1sc2nc3ccc(NCc4ccco4)nn3c(=O)c2c1C	inconclusive: 66.5%
CN(C)/C=C(\C=O)c1onc(-c2ccccc2Cl)c1C#N	inconclusive: 61.6%
CCN(CC)S(=O)(=O)c1cc(C(=O)Oc2ccccc2OC)ccc1OC	inconclusive: 58%

Quoted from the listing.
Entry of `CCC1Oc2ccc(C)cc2N(CC(=O)N(Cc2ccncc2)Cc2ccco2)C1=O` (stereo not given) under inhibition: inactive: 10.2%
Entry of `COc1ccc(N(CC(=O)N/N=C/c2cc(Br)c(C)o2)S(=O)(=O)c2ccc(NC(C)=O)cc2)cc1` under inhibition: inconclusive: 65.9%
Entry of `Cc1csc(Sc2ccc([N+](=O)[O-])cc2C(=O)OCC(=O)NC2CCCC(C)C2C)n1` (stereo not given) under inhibition: inconclusive: 67.4%
Entry of `Cc1sc2nc3ccc(NCc4ccco4)nn3c(=O)c2c1C` under inhibition: inconclusive: 66.5%
